Data taken from patent publication US6017918A, “Phenyl glycine compounds and methods of treating atherosclerosis and restenosis” (Warner-Lambert Company, priority 1999, dated 2000).
pIC50: −log10 of the molar value. For at least one compound, name, drawing or mass did not settle the structure.

System: apolipoprotein(a), [apo(a)], apolipoproteinB-100, [apoB-100], coupling reaction that generates Lp(a)
Assay: LPABC screen: lipoprotein(a) biochemical coupling assay, Lp(a) by ELISA
Conditions: recombinant apo(a) + HepG2 conditioned media, 67 minutes, 37° C.; ^a = multiple tests
Description: The lipoprotein(a), [Lp(a)], biochemical coupling assay (LPABC) is used to characterize inhibitors of the apolipoprotein(a), [apo(a)], apolipoproteinB-100, [apoB-100], coupling reaction that generates Lp(a).
Protocol Conditioned media from 293 cells (ATCC CRL-1573), permanently transfected with an apo(a) 17-kringle cDNA expression construct (pcDNA-AMP, In Vitrogen, Carlsbad, Calif.) using standard molecular biology techniques, was used as a source of recombinant apo(a). The 293 cell conditioned media containing the recombinant apo(a) is diluted 1:3 with phosphate buffered saline (PBS) and 90 μL is pipetted into each well of a 96-well plate and placed into a 37° C. incubator for 10 minutes. Twenty microliters of a 0.3 to 50 μM solution of a compound of the present invention in PBS is added to the warmed plate. Ninety microliters of HepG2 (ATCC HB-8065) cell conditioned media diluted 1:3 with PBS is added to the apo(a)/compound mixture and mixed by pipetting up and down 5 times. The reaction is incubated for 67 minutes in a 37° C. incubator. A 100 μL aliquot of the reaction is removed and assayed for its Lp(a) content by an enzyme linked immunosorbent assay (ELISA).

| Structure (SMILES) | pIC50 |
| --- | --- |
| CCOC(=O)C(NCc1ccc(O)cc1)c1cc(C(C)(C)C)c(O)c(C(C)(C)C)c1 (centres unmarked) [Example 43, (3,5-Di-tert-butyl-4-hydroxy-phenyl)-(4-hydroxy-benzylamino)-acetic acid ethyl ester] | 4.53 |
| CCN(CC)C(=O)C(c1cc(C(C)(C)C)c(O)c(C(C)(C)C)c1)N1CCOCC1 (centres unmarked) [Example 56, Diethyl-(3,5-Di-tert-butyl-4-hydroxy-phenyl)-(N-morpholinyl)-acetamide] | 5.93 |
